These are yes or no findings as the source states them, for the method shown. In cells and extracts the contact can be indirect. Some results given as binding are weak or reduced against the parent protein; the word gives no strength. Tags and fused reporters may be left off the sequences shown.

Sequences of proteins named here, by UniProt entry; tags and fusion partners are left off.
UniProt B0B9M3: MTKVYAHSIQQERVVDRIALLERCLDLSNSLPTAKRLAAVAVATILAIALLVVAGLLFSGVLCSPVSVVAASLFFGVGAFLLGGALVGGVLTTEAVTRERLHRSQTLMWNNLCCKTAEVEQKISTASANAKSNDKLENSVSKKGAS
UniProt B0B9M4: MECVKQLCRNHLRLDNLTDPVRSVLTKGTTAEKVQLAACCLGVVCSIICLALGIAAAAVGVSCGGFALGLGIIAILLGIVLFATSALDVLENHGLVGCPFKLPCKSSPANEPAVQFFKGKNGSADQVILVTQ
UniProt B0B9M5: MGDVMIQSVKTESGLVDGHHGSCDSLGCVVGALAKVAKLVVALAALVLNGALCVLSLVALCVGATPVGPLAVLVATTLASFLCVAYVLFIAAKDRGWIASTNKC

Assay in all cases: co-IP; HEK293 co-transfected 48 h; lysis in 20 mM Tris pH 7.5, 150 mM NaCl, 2 mM EDTA, 1% Triton X-100; anti-FLAG M2 agarose beads 2 h, 4°C; eluted with 3XFLAG peptide; immunoblot with anti-GFP and anti-FLAG
(A western blot detects proteins with antibodies after separation by electrophoresis.)

Assay [1] has as its target 3xFLAG-IncD (C. trachomatis (L2/434/Bu)) (UniProt B0B9M3).
Assay [2] concerns the target 3xFLAG-IncE (C. trachomatis (L2/434/Bu)) (UniProt B0B9M4).
The target in assay [3] is 3xFLAG-IncF (C. trachomatis (L2/434/Bu)) (UniProt B0B9M5).

B1: CERT-GFP fusion protein containing full-length CERT (protein, UniProt Q9Y5P4-2 1-598)
chain: MSDNQSWNSSGSEEDPETESGPPVERCGVLSKWTNYIHGWQDRWVVLKNNALSYYKSEDETEYGCRGSICLSKAVITPHDFDECRFDISVNDSVWYLRAQDPDHRQQWIDAIEQHKTESGYGSESSLRRHGSMVSLVSGASGYSATSTSSFKKGHSLREKLAEMETFRDILCRQVDTLQKYFDACADAVSKDELQRDKVVEDDEDDFPTTRSDGDFLHSTNGNKEKLFPHVTPKGINGIDFKGEAITFKATTAGILATLSHCIELMVKREDSWQKRLDKETEKKRRTEEAYKNAMTELKKKSHFGGPDYEEGPNSLINEEEFFDAVEAALDRQDKIEEQSQSEKVRLHWPTSLPSGDAFSSVGTHRFVQKVEEMVQNHMTYSLQDVGGDANWQLVVEEGEMKVYRREVEENGIVLDPLKATHAVKGVTGHEVCNYFWNVDVRNDWETTIENFHVVETLADNAIIIYQTHKRVWPASQRDVLYLSVIRKIPALTENDPETWIVCNFSVDHDSAPLNNRCVRAKINVAMICQTLVSPPEGNQEISRDNILCKITYVANVNPGGWAPASVLRAVAKREYPKFLKRFTSYVQEKTAGKPILF
Take B1: the binding entry in assay [1] was “binds”; in assay [2], “no binding”; in assay [3], “no binding”.

B2: PX-YFP (phosphoinositide binding domain of p40phox) (domain or fragment, UniProt Q15080 19-140)
chain: DVAISANIADIEEKRGFTSHFVFVIEVKTKGGSKYLIYRRYRQFHALQSKLEERFGPDSKSSALACTLPTLPAKVYVGVKQEIAEMRIPALNAYMKSLLSLPVWVLMDEDVRIFFYQSPYDS
On to B2, for which, in assay [1], the binding result is recorded as “no binding”.

For the origin of these results see PMC3121800.
